# Earlier results, collected in patent publication US20070105808A1, “Inhibition of histone deacetylase” (MethylGene, Inc., priority 1999, published 2007).
# At least one compound was matched to its structure with a doubt left.
# Tested on: cell cycle progression in cells
# Conditions: literature reports; cited from earlier work
compound,measurement,value
CCCC(=O)O [butyrate],cell cycle progression,inhibit cell cycle progression in cells
